Test [1] concerns the target T1, strep-CsoS1A (hexameric shell protein CsoS1A) (Halothiobacillus neapolitanus) (UniProt P45689).
T1 sequence: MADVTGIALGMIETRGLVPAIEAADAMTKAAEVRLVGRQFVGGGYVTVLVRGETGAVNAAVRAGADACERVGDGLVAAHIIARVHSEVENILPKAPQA
Put plainly: turbidity.

Test [2] addresses T1, strep-CsoS1A (hexameric shell protein CsoS1A) (Halothiobacillus neapolitanus). Briefly: native gel or EMSA. A general note: A gel shift assay detects complexes by their altered migration in electrophoresis.

Results are given in words; binding and its absence hold for the method and conditions named. A result given as binding can be weak or reduced; the word gives no strength.

As to “6xHis-wtMR-strep (wild-type Middle Region of CsoS2, repeats 1-6) (Halothiobacillus neapolitanus) (domain or fragment)”, the binding entry in test [1] and in test [2] was “binds” throughout.

The record behind these values is publication doi:10.1101/2023.07.08.548221.
